Results: publication PMC5047748
These are yes or no findings as the source states them, for the method shown. In cells and extracts the contact can be indirect. Some entries that bind do so weakly or less than the wild type.

Chains of the proteins cited; added tags and fusions are not shown.
UniProt Q9VY77: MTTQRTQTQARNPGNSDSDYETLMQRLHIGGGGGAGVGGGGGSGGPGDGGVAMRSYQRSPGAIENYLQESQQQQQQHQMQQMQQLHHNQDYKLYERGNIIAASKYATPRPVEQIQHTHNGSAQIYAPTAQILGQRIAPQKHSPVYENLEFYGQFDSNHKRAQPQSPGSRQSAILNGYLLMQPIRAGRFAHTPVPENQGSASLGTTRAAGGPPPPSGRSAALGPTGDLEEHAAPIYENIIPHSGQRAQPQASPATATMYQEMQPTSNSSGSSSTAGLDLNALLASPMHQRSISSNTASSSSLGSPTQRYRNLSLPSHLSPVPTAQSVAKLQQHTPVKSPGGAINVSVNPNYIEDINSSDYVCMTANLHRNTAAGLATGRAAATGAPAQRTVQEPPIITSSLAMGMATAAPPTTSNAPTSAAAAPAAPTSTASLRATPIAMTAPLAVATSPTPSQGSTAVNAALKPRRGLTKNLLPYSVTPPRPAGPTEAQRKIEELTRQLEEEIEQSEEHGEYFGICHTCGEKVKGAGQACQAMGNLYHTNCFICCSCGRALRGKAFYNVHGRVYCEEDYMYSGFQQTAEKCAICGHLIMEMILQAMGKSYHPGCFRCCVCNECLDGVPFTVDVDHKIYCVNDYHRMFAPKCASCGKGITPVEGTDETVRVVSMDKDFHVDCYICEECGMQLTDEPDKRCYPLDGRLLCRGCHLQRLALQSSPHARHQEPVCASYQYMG
UniProt Q24311: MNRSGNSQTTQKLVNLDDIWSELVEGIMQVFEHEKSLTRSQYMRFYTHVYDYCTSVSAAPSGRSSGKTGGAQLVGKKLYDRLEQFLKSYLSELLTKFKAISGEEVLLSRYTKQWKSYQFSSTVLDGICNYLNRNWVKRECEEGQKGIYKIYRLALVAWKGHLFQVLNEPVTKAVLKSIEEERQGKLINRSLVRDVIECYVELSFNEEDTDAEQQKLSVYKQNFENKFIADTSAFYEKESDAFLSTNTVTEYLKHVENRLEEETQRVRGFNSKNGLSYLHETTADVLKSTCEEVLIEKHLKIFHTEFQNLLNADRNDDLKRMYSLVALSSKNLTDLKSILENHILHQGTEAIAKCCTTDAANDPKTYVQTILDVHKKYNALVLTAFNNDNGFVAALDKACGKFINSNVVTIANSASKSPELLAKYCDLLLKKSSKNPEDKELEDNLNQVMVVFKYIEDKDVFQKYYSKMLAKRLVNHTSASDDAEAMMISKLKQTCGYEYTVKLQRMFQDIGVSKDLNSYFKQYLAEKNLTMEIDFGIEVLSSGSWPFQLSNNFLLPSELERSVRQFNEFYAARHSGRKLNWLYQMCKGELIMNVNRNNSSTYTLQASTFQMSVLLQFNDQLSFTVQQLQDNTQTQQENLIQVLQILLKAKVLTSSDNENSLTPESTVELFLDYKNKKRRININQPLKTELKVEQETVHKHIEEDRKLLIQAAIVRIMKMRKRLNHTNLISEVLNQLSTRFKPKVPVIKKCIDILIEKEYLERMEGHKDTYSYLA
UniProt O76324: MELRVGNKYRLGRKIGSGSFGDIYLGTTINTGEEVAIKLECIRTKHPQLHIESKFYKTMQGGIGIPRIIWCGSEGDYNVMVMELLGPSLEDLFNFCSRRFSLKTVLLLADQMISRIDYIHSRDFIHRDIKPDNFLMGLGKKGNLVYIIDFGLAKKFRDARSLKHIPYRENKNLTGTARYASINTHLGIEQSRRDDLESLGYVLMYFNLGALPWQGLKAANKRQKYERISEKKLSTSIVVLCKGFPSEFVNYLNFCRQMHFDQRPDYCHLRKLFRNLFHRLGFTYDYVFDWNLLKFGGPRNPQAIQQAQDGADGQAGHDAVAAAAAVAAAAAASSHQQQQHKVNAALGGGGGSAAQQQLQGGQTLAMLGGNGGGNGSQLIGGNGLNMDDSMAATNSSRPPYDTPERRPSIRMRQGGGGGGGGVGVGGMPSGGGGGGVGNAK
UniProt O77430: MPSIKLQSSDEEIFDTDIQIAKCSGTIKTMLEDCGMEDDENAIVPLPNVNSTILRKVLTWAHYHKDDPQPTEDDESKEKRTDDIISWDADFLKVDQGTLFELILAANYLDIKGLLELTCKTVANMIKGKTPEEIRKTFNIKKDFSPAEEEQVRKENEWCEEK

How the values were obtained:
Test in all cases: co-IP; transfected S2R+ cells; RIPA lysis buffer (50 mM Tris pH 7.5, 150 mM NaCl, 1 mM EDTA, 1% NP40, 5% glycerol); 1 µg antibodies 1 hr then Protein A beads 2 hr at 4°C; western blot
Ajuba (Drosophila) = Ajuba (Drosophila) (UniProt Q9VY77)
Cullin 1 (Drosophila) = Cullin 1 (Drosophila) (UniProt Q24311)
[1] = target: Discs overgrown (Dco), casein kinase 1ε (Drosophila) (UniProt O76324)
SkpA (Drosophila) = SkpA (Drosophila) (UniProt O77430)

B1: Dlish (CG10933), expressed in S2 cells for co-IP (protein, UniProt A1ZAY1 1-355)
chain: MAFLCPVRMRRDKKKATNASIERDLPAVGVLGMGRITGSSSIETLVRVGIEKEHGLSPDSKMVVLHDFTPCVDDELEVKRGQLVNILYRENDWVYVIGQDSRQEGFIPFSYCAPCNTQLADLAVKKKLPREQCPEQPIEENIPLLGTDNKLDVLCDETLNPGSANSIENTLLVEPECTPFVKEPSGRCIVLYTFIARDENDLSVERGEFVTVLNREDPDWFWIMRSDGQEGFVPASFIYPADSVRVLQQQKATLNAMETILQQGQQGQQSQQQQQPQLGLGTDDLRYHGTELVMLYDYKAQAPDDLYLSVRRGDWIYADLTNQTVDGWLWAYAPKTRKYGFIPKAYARPPAMTSL
With B1 the binding (Ajuba (Drosophila)) was “no binding”, the binding (Cullin 1 (Drosophila)) was “binds” and the binding [1] was “binds”. For the same binder, the binding (SkpA (Drosophila)) was “no binding”.
